From patent US20080058297A1, “Heterocyclic Compounds For Preventing And Treating Disorders Associated With Excessive Bone Loss” (Synta Pharmaceuticals Corp., priority 2003, published 2008)

Test system: Human peripheral blood mononuclear cells (PBMC)
Test: Inhibition of osteoclast formation (RANKL/M-CSF induced, TRAP staining)
Assay type: cell-based
Settings: 96 h, Table 1, 20 ng/ml RANKL + 10 ng/ml M-CSF, TRAP-positive cells with more than 3 nuclei, read-out: IC50 (compound concentration required for 50% inhibition of osteoclast formation)
Description: (§1) Human peripheral blood mononuclear cells (PBMC) were isolated from healthy donor blood. The cells were seeded in multi-well plates at 7.5×10^5 cells/ml in RPMI 1640 medium including 10% FBS. Osteoclast formation was induced with 20 ng/ml of recombinant human receptor activator of NF-kB-ligand (RANKL) and 10 ng/ml of human M-CSF in the presence of various doses of test compounds. After 48 hours of culture, RANKL and M-CSF was replenished and further cultured for 2 days. Then, the cultured cells were stained for tartrate-resistant acid phosphatase (TRAP). Osteoclasts were identified as TRAP-positive cells with more than 3 nuclei. Total cell viability was assessed by CCK-8 assay (Dojindo, Gaithersburg, Md.) with 24 hour incubation.
as §1, with “Isolated” for “isolated”, “Osteoclasts were identified as TRAP-positive cells with more than 3 nuclei.” left out

## CC/C(=C(\c1ccccc1)c1ccc(OCCN(C)C)cc1)c1ccccc1 [Tamoxifen, reference compound]
  IC50: 474 nM
